Test: general procedure: solution-phase peptide synthesis; HATU / N,N-diisopropylethylamine

Substance	step yield (coupling step)	step yield (late stage modification step) [%]	final purity (method not given) (late stage modification step)
BocGlnThr(OBn)GlyThr(OBn)GlyLys(Cbz)Thr(OBn) OBn	89% overall yield		
2-Naphthyl-AlaGlnThr(OBn)GlyThr(OBn)GlyLys(Cbz)Thr(OBn)OBn	64%		
GlnThr(OBn)GlyThr(OBn)GlyLys(Cbz) Thr(OBn)OBn		96	
Ac-AlaGlnThr(OBn)GlyThr(OBn)GlyLys(Cbz)Thr(OBn)OBn	33%		
3-PhPh-AQTGTGKT		5	90% or more
3-PhPh-AlaGlnThr(OBn)GlyThr(OBn)GlyLys(Cbz)Thr(OBn)OBn	38%		
BocThr(OBn)GlyThr(OBn)GlyLys(Cbz)Thr (OBn)OBn	>100%		
4-OMePh-AlaGlnThr(OBn)GlyThr(OBn)GlyLys(Cbz)Thr(OBn)OBn	50%		
naphthyl-AQTGTGKT		33	85%
Ph-AQTGTGKT		33	90% or more
Ph-AlaGlnThr(OBn)GlyThr(OBn)GlyLys(Cbz)Thr(OBn)OBn	58%		
2-PhPh-AlaGlnThr(OBn)GlyThr(OBn)GlyLys(Cbz)Thr(OBn)OBn	49%		
Ac-AQTGTGKT		37	
4-MeOPh-AQTGTGKT		10	89%
2-PhPh-AQTGTGKT		31	95% or more

Reference: patent US20250213645A1 (L-BASE CO., LTD., priority 2021, published 2025)
